In the supplement of paper PMC10849652:
The other results are listed elsewhere or left out.

Sequences of proteins named here, by UniProt entry; tags and fusion partners are left off. A change or cut given only in a name is not applied to a line headed by its entry.
UniProt Q6IA69: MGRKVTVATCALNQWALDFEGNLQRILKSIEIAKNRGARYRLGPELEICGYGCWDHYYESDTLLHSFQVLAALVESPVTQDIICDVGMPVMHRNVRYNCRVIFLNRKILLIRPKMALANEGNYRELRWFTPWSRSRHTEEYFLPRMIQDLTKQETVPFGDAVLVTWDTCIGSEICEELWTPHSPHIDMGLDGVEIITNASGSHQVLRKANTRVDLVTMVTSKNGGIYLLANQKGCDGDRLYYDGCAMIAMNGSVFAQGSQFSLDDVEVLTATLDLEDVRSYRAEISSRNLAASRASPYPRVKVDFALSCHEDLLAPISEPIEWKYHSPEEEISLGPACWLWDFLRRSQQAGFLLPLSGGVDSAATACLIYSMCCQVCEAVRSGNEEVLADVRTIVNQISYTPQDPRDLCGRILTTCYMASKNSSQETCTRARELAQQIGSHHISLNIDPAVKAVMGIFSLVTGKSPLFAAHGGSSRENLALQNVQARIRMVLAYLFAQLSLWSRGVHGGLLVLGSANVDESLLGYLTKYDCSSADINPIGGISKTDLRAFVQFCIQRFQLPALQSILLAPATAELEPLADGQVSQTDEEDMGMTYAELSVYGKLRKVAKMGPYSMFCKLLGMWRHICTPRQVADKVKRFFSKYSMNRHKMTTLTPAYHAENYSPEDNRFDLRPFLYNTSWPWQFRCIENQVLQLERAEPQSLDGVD
UniProt P35580, whole entry, looked up: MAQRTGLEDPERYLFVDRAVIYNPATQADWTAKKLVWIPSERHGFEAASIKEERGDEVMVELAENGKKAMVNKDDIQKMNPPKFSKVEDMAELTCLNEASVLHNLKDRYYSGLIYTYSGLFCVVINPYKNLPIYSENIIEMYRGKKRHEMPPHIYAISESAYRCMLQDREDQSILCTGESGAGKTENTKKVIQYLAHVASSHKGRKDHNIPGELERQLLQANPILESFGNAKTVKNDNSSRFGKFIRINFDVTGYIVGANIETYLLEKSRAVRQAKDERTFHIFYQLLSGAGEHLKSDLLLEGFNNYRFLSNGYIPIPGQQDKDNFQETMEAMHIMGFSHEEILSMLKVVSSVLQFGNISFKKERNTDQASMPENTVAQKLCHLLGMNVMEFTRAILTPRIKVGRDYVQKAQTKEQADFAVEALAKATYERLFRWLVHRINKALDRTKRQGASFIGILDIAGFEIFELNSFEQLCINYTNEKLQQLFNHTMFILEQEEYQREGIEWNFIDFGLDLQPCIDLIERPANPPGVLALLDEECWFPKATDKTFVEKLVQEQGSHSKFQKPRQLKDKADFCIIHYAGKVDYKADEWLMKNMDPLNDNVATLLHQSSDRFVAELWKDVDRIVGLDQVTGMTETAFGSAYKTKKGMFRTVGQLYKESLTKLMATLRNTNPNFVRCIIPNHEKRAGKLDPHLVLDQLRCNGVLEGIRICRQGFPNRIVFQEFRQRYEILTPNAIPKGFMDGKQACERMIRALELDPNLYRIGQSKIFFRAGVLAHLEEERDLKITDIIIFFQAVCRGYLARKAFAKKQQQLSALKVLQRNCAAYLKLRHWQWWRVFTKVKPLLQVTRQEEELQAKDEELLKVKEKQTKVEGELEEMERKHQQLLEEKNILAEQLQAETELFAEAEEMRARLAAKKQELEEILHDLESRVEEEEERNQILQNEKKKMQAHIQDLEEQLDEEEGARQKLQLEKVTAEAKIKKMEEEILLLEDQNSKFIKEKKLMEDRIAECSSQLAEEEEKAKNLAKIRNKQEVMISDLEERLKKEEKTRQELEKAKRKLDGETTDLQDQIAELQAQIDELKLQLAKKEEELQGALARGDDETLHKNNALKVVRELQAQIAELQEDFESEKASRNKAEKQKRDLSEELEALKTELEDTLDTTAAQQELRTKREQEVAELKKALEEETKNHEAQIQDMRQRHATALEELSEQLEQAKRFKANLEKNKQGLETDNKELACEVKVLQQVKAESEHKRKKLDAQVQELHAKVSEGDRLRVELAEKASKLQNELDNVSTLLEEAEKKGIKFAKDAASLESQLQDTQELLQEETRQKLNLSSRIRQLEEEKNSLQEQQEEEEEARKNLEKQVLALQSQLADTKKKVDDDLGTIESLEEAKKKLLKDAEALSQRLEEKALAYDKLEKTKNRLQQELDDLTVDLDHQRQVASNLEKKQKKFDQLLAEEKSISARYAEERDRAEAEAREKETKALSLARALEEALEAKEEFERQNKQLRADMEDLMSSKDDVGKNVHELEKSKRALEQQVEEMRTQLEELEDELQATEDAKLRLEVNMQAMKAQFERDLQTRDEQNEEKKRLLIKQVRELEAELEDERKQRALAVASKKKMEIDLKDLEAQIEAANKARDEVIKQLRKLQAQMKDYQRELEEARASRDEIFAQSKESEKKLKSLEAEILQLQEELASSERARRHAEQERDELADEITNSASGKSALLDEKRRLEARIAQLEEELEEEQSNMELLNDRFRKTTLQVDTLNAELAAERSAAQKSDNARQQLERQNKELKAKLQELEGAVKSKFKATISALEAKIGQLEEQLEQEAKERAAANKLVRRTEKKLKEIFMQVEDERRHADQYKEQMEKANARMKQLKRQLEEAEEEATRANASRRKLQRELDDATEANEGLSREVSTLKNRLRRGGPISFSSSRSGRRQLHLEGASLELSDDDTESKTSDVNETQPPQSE
UniProt O43639, whole entry, looked up: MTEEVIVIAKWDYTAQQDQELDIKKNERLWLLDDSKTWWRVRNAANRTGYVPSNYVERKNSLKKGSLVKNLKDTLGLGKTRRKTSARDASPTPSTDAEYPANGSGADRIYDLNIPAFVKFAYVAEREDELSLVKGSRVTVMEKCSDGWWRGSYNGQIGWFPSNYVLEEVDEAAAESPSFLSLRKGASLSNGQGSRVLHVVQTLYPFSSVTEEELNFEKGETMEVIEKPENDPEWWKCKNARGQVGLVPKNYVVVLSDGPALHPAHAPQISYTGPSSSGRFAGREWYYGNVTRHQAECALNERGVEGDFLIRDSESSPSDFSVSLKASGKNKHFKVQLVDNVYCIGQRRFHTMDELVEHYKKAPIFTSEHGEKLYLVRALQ
UniProt P52298: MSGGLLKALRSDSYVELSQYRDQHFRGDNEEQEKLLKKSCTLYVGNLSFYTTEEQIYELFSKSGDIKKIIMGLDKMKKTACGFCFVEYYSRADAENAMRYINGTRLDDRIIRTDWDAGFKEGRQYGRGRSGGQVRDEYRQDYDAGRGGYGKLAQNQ
UniProt Q99747: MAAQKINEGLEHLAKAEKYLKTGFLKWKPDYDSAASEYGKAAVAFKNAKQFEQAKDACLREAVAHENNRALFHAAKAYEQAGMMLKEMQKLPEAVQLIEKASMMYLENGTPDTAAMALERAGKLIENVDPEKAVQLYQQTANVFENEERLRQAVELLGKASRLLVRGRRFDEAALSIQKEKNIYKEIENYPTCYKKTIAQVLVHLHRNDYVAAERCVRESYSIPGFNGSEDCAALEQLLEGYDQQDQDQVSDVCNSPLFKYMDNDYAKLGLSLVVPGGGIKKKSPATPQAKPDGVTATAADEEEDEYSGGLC
UniProt O94832: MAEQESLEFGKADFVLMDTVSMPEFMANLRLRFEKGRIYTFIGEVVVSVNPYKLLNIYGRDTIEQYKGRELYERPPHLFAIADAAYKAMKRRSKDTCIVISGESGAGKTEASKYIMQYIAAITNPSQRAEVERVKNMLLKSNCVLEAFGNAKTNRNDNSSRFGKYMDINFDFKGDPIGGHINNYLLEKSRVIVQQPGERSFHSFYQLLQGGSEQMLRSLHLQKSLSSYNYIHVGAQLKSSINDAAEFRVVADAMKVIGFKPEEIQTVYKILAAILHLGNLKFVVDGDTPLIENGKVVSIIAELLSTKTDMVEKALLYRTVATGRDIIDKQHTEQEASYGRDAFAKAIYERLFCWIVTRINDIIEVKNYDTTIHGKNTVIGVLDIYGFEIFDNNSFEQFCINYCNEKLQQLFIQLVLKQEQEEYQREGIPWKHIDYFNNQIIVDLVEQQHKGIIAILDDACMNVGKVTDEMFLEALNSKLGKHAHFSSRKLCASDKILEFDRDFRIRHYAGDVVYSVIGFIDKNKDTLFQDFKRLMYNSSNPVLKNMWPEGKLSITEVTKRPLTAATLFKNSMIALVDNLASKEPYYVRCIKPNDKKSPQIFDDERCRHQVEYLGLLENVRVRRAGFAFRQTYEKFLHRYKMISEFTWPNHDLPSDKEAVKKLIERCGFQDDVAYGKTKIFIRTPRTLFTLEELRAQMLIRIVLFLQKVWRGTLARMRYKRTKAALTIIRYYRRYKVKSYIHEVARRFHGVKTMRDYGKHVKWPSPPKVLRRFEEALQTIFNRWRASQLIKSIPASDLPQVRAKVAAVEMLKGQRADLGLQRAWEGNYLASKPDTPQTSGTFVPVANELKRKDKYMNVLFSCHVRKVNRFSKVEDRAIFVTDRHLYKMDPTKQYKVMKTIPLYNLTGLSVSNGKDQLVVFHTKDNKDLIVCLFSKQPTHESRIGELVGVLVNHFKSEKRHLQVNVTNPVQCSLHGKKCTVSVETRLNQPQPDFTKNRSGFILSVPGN
UniProt P19338, whole entry, looked up: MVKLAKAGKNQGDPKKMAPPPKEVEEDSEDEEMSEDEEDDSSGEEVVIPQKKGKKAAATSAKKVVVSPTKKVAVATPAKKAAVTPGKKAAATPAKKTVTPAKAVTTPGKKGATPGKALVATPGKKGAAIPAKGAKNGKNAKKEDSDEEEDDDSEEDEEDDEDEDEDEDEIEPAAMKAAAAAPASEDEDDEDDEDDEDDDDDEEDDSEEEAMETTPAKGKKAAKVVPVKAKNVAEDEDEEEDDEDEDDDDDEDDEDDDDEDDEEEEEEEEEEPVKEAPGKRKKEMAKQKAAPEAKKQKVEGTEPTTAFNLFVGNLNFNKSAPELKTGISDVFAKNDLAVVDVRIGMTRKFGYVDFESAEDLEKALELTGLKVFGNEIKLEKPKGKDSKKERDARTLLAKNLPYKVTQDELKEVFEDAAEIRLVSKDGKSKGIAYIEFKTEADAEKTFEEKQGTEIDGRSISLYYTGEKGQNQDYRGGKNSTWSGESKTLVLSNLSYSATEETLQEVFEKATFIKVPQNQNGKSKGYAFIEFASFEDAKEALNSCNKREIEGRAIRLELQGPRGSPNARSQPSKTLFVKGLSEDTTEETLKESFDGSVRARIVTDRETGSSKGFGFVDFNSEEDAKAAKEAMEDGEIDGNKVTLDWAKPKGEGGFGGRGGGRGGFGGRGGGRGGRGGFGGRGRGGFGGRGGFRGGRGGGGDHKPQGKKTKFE
UniProt P18440: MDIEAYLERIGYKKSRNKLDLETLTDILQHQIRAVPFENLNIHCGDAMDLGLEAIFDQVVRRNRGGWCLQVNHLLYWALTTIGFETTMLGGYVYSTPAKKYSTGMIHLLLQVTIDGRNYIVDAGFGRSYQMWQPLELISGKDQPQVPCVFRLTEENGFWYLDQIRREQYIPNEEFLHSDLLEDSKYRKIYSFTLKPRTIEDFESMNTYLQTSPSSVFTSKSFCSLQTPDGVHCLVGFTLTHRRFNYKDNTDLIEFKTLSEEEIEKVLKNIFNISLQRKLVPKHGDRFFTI
UniProt Q99417: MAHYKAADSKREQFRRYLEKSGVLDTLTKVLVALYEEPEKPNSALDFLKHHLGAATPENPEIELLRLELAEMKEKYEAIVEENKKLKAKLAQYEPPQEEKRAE
UniProt P60660, whole entry, looked up: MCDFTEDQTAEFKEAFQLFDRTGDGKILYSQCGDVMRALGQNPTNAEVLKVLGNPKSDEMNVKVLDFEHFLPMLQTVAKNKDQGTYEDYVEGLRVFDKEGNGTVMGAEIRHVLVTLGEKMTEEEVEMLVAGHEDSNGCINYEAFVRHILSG
UniProt Q15003, whole entry, looked up: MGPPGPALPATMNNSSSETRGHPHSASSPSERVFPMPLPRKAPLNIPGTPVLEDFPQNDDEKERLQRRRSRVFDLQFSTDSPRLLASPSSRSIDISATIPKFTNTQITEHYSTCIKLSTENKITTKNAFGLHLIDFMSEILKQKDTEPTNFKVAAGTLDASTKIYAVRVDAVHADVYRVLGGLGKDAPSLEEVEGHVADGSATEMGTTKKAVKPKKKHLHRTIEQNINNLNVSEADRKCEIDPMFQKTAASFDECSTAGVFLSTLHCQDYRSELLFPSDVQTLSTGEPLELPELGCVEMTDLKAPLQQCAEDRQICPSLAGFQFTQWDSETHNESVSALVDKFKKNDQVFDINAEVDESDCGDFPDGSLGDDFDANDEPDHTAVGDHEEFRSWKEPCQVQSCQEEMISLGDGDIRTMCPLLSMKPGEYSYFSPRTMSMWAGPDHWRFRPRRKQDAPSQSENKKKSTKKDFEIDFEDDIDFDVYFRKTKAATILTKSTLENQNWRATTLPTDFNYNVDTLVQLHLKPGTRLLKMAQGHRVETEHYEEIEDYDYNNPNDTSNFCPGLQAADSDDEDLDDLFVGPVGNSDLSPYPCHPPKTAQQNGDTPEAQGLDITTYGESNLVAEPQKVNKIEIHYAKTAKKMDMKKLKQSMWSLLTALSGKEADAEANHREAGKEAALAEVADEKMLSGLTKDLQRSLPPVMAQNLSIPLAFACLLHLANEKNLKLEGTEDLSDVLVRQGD

Tests used:
Assay in all cases: log2 fold change, soluble protein after heating vs DMSO (PISA); higher = thermal stabilisation; K562 lysate, 10 uM; active = over 0.2 and 3.5 SD of the protein, either way, in both replicates (recomputed)
[1] = compound: C=CC(=O)N1CCC[C@@H](n2nc(-c3ccc(Oc4ccccc4)cc3)c3c(N)ncnc32)C1 [ibrutinib]
Summary of the method: (§1)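 Soluble protein was defined as the supernatant remaining after 21,000xg for 90 min, following pooling of heated aliquots and adjustment to 0.5% NP-40 at 4°C. Before that, crude K562 extract at 1 mg/mL protein in PBS pH 7.4 with 1 mM MgCl2 was treated with 10 μM compound for 30 min and heated for 3 min across 48°C-58°C. Quantification used TMTpro 16plex LC-MS/MS with channel sums equalised, and values are log-two fold changes in thermal stability relative to solvent controls from duplicates.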

[2] = compound: CC(=O)c1cnc2ccc(-c3cc(Cl)c(O)c(Cl)c3)nc2c1N[C@H]1CC[C@H](CN(C)C)CC1
Summary of the method: as §1

[3] = compound: CC(C)(C)Cn1c(N)nc2ccc(-c3[nH]c(C(C)(C)C)nc3-c3ccc(F)cc3)nc21 [ralimetinib]
Summary of the method: as §1

[4] = compound: CC(C)(O)CC(=O)NCCn1ccc2ncnc(Nc3ccc(Oc4cccc(C(F)(F)F)c4)c(Cl)c3)c21
Summary of the method: as §1

[5] = compound: CC(C)C1=C2N=C(C=C(N2N=C1)NCC3=CC=CC=C3)NCCCCCCN
Summary of the method: as §1

[6] = compound: CC1=C(C(CC(=O)N1)C2=CC=C(C=C2)C(F)(F)F)C(=O)NC3=C(C=C4C(=C3)C=NN4)F
Summary of the method: as §1

[7] = compound: CC1=C(C2=C(C=C1)C(=O)C3=CC=CC=C3N2CCCN)C
Summary of the method: as §1

[8] = compound: CC1=C(C=C(C=C1)NC(=O)C2=CC(=CC=C2)C(C)(C)C#N)NC3=CC4=C(C=C3)N=CN(C4=O)C
Summary of the method: as §1

[9] = compound: CC1=C(C=C(C=C1)NC(=O)C2=CC(=CC=C2)N(C)C)NC(=O)C3=CC=C(C=C3)O
Summary of the method: as §1

[10] = compound: CC1=CC=C(C=C1)SC2=C3C=C(SC3=CN=C2)C(=O)N
Summary of the method: as §1

[11] = compound: CCCS(=O)(=O)Nc1ccc(F)c(C(=O)c2c[nH]c3ncc(-c4ccc(Cl)cc4)cc23)c1F [vemurafenib]
Summary of the method: as §1

[12] = compound: CCCS(=O)(=O)Nc1ccc(F)c(C(=O)c2c[nH]c3ncc(Cl)cc23)c1F
Summary of the method: as §1

[13] = compound: CCN(CCCOc1ccc2c(Nc3cc(CC(=O)Nc4cccc(F)c4)[nH]n3)ncnc2c1)CCOP(=O)(O)O [barasertib]
Summary of the method: as §1

[14] = compound: CC[C@@H]1C(=O)N(C)c2cnc(Nc3ccc(C(=O)NC4CCN(C)CC4)cc3OC)nc2N1C1CCCC1
Summary of the method: as §1

[15] = compound: CC[C@@H]1C(=O)N(C)c2cnc(Nc3ccc(C(=O)N[C@H]4CC[C@H](N5CCN(CC6CC6)CC5)CC4)cc3OC)nc2N1C(C)C [volasertib]
Summary of the method: as §1

[16] = compound: CCn1c(C(=O)N(C2CC2)C2CC2)cc2c3c(ncn3C)c(Nc3cc(C)n(C)n3)nc21
Summary of the method: as §1

[17] = compound: CCn1cc(-c2ccnc3[nH]c(-c4cccc(CN(C)C)c4)cc23)c(-c2ccc(NC(=O)N(C)C)cc2)n1
Summary of the method: as §1

[18] = compound: CN1CCC(CNc2ccc3ncc(-c4cccc(OC(F)(F)F)c4)n3n2)CC1
Summary of the method: as §1

[19] = compound: CN1CCN(CCOc2cc(OC3CCOCC3)c3c(Nc4c(Cl)ccc5c4OCO5)ncnc3c2)CC1 [saracatinib]
Summary of the method: as §1

[20] = compound: CN1CCN(c2nc(C3=C(c4c[nH]c5ccccc45)C(=O)NC3=O)c3ccccc3n2)CC1 [sotrastaurin]
Summary of the method: as §1

Measured: log2 fold change

NADSYN1 (UniProt Q6IA69)
inactive: [1] 0.009 | [2] -0.004 | [3] 0.031 | [4] -0.016 | [5] -0.035 | [6] 0.018 | [7] 0.028 | [8] -0.025 | [9] 0 | [10] -0.017 | [11] -0.006 | [12] 0 | [13] -0.001 | [14] 0.063 | [15] 0.021 | [16] 0.005 | [17] -0.023 | [18] 0.086 | [19] -0.032 | [20] 0.043

MYH10 isoform 3 (UniProt P35580)
inactive: [1] -0.016 | [2] -0.005 | [3] 0 | [4] -0.05 | [5] -0.004 | [6] -0.012 | [7] 0.01 | [8] 0.007 | [9] -0.011 | [10] -0.013 | [11] 0.007 | [12] 0.063 | [13] -0.003 | [14] 0.005 | [15] -0.034 | [16] -0.019 | [17] 0.019 | [18] 0.005 | [19] 0.011 | [20] 0.01

NCK2 (UniProt O43639)
inactive: [1] 0.081 | [2] 0.021 | [3] 0.089 | [4] 0.03 | [5] -0.022 | [6] 0.045 | [7] 0.098 | [8] -0.036 | [9] -0.051 | [10] 0.002 | [11] 0.018 | [12] 0.004 | [13] 0.076 | [14] -0.146 | [15] -0.061 | [16] 0.055 | [17] 0.048 | [18] -0.021 | [19] 0.024 | [20] 0.046

Copied from the results shown (2 entries):
MYH10 isoform 3 (UniProt P35580)
inactive: [1] -0.016 | [2] -0.005 | [3] 0 | [4] -0.05 | [5] -0.004 | [6] -0.012 | [7] 0.01 | [8] 0.007 | [9] -0.011 | [10] -0.013 | [11] 0.007 | [12] 0.063 | [13] -0.003 | [14] 0.005 | [15] -0.034 | [16] -0.019 | [17] 0.019 | [18] 0.005 | [19] 0.011 | [20] 0.01

NCK2 (UniProt O43639)
inactive: [1] 0.081 | [2] 0.021 | [3] 0.089 | [4] 0.03 | [5] -0.022 | [6] 0.045 | [7] 0.098 | [8] -0.036 | [9] -0.051 | [10] 0.002 | [11] 0.018 | [12] 0.004 | [13] 0.076 | [14] -0.146 | [15] -0.061 | [16] 0.055 | [17] 0.048 | [18] -0.021 | [19] 0.024 | [20] 0.046

The list goes on.

NCKAP1L (UniProt P55160)
inactive: [1] -0.18 | [2] 0.021 | [3] 0.025 | [4] -0.04 | [5] -0.111 | [6] -0.051 | [7] -0.089 | [8] -0.012 | [9] 0.04 | [10] 0.025 | [11] -0.14 | [12] 0.032 | [13] 0.131 | [14] -0.068 | [15] 0.004 | [16] -0.049 | [17] -0.025 | [18] -0.082 | [19] -0.083 | [20] 0.032

NCBP2 (UniProt P52298)
inactive: [1] -0.045 | [2] -0.029 | [3] 0.015 | [4] 0.001 | [5] 0.022 | [6] 0.014 | [7] 0.044 | [8] -0.027 | [9] 0.062 | [10] -0.076 | [11] 0.039 | [12] -0.002 | [13] -0.025 | [14] 0.003 | [15] -0.009 | [16] 0.011 | [17] 0.002 | [18] -0.035 | [19] -0.047 | [20] 0.034

NAPG (UniProt Q99747)
inactive: [1] 0.016 | [2] -0.008 | [3] -0.017 | [4] -0.037 | [5] 0.028 | [6] 0.023 | [7] -0.029 | [8] -0.005 | [9] -0.035 | [10] -0.022 | [11] 0.001 | [12] 0.001 | [13] -0.018 | [14] 0.018 | [15] 0.022 | [16] 0 | [17] 0.016 | [18] -0.023 | [19] -0.009 | [20] -0.043

MYO1D (UniProt O94832)
inactive: [1] -0.016 | [2] -0.012 | [3] 0.04 | [4] 0.003 | [5] 0.018 | [6] -0.021 | [7] -0.009 | [8] -0.014 | [9] 0.01 | [10] 0.031 | [11] 0.073 | [12] 0.018 | [13] 0.05 | [14] 0.006 | [15] -0.003 | [16] -0.002 | [17] -0.05 | [18] -0.035 | [19] -0.001 | [20] 0.041

NCL (UniProt P19338)
inactive: [1] -0.015 | [2] 0.002 | [3] -0.044 | [4] -0.011 | [5] 0.016 | [6] -0.055 | [7] -0.027 | [8] -0.002 | [9] -0.033 | [10] 0.006 | [11] 0.01 | [12] -0.026 | [13] -0.016 | [14] -0.008 | [15] 0.024 | [16] -0.026 | [17] 0.005 | [18] -0.038 | [19] -0.001 | [20] -0.001

NAT1 (UniProt P18440)
inactive: [1] -0.089 | [2] -0.039 | [3] 0.062 | [4] 0.019 | [5] -0.035 | [6] -0.001 | [7] -0.048 | [8] 0.034 | [9] 0.009 | [10] 0.052 | [11] 0.04 | [12] -0.003 | [13] -0.104 | [14] 0.003 | [15] 0.009 | [16] -0.012 | [17] -0.149 | [18] -0.014 | [19] -0.001 | [20] 0.078

NARF (UniProt Q9UHQ1)
inactive: [1] 0.004 | [2] 0.044 | [3] -0.007 | [4] -0.013 | [5] -0.013 | [6] -0.007 | [7] -0.011 | [8] -0.013 | [9] -0.008 | [10] -0.113 | [11] 0.035 | [12] 0.035 | [13] 0.028 | [14] 0.011 | [15] 0.135 | [16] -0.025 | [17] -0.055 | [18] 0.014 | [19] 0.023 | [20] 0.049

NCOR1 (UniProt O75376)
inactive: [1] 0.002 | [2] 0.015 | [3] 0.021 | [4] -0.033 | [5] 0.014 | [6] 0.026 | [7] -0.026 | [8] 0 | [9] -0.006 | [10] -0.005 | [11] -0.005 | [12] -0.01 | [13] 0.018 | [14] 0.043 | [15] 0.002 | [16] -0.014 | [17] -0.002 | [18] -0.033 | [19] 0.006 | [20] 0.006

NAAA (UniProt Q02083)
inactive: [1] 0.113 | [2] 0 | [3] -0.058 | [4] 0.02 | [5] 0.017 | [6] -0.058 | [7] 0.025 | [8] -0.058 | [9] 0.003 | [10] 0.019 | [11] 0.013 | [12] 0.076 | [13] -0.057 | [14] -0.03 | [15] -0.24 | [16] -0.01 | [17] -0.07 | [18] 0.095 | [19] 0.094 | [20] -0.015

MYCBP (UniProt Q99417)
inactive: [1] 0.188 | [2] -0.009 | [3] 0.021 | [4] -0.04 | [5] 0.002 | [6] -0.007 | [7] -0.017 | [8] 0.032 | [9] -0.002 | [10] -0.009 | [11] -0.001 | [12] 0 | [13] 0.16 | [14] -0.003 | [15] 0.044 | [16] -0.007 | [18] 0.189 | [19] 0.021 | [20] 0.035
active: [17] -0.589

MYL6 (UniProt P60660)
inactive: [1] 0.067 | [2] -0.045 | [3] 0.008 | [4] -0.045 | [5] 0.007 | [6] -0.043 | [7] 0.029 | [8] 0.038 | [9] 0.021 | [10] 0.006 | [11] -0.009 | [12] -0.032 | [13] 0.163 | [14] 0.052 | [15] 0.043 | [16] 0.006 | [17] -0.073 | [18] -0.054 | [19] -0.008 | [20] -0.017

NCAPH (UniProt Q15003)
inactive: [1] 0.006 | [2] 0.016 | [3] -0.002 | [4] -0.031 | [5] -0.013 | [6] 0.003 | [7] -0.001 | [8] -0.003 | [9] 0.012 | [10] 0.011 | [11] -0.015 | [12] 0.001 | [13] 0.012 | [14] -0.046 | [15] -0.044 | [16] 0.027 | [17] -0.057 | [18] -0.035 | [19] -0.016 | [20] 0.015

NAF1 (UniProt Q96HR8)
inactive: [1] 0.052 | [2] 0.008 | [3] -0.017 | [4] 0.002 | [5] -0.025 | [6] 0.062 | [7] 0.008 | [8] -0.208 | [9] -0.036 | [10] -0.001 | [11] 0.023 | [12] -0.009 | [13] 0.026 | [14] 0.042 | [15] 0.056 | [16] 0.044 | [17] -0.019 | [18] 0.011 | [19] 0.043 | [20] -0.069
